From the supplement of paper PMC11006884
Only a part is listed here, and it is no random draw.

Sequences of proteins named here, by UniProt entry; tags and fusion partners are left off. A change or cut given only in a name is not applied to a line headed by its entry.
UniProt P46013: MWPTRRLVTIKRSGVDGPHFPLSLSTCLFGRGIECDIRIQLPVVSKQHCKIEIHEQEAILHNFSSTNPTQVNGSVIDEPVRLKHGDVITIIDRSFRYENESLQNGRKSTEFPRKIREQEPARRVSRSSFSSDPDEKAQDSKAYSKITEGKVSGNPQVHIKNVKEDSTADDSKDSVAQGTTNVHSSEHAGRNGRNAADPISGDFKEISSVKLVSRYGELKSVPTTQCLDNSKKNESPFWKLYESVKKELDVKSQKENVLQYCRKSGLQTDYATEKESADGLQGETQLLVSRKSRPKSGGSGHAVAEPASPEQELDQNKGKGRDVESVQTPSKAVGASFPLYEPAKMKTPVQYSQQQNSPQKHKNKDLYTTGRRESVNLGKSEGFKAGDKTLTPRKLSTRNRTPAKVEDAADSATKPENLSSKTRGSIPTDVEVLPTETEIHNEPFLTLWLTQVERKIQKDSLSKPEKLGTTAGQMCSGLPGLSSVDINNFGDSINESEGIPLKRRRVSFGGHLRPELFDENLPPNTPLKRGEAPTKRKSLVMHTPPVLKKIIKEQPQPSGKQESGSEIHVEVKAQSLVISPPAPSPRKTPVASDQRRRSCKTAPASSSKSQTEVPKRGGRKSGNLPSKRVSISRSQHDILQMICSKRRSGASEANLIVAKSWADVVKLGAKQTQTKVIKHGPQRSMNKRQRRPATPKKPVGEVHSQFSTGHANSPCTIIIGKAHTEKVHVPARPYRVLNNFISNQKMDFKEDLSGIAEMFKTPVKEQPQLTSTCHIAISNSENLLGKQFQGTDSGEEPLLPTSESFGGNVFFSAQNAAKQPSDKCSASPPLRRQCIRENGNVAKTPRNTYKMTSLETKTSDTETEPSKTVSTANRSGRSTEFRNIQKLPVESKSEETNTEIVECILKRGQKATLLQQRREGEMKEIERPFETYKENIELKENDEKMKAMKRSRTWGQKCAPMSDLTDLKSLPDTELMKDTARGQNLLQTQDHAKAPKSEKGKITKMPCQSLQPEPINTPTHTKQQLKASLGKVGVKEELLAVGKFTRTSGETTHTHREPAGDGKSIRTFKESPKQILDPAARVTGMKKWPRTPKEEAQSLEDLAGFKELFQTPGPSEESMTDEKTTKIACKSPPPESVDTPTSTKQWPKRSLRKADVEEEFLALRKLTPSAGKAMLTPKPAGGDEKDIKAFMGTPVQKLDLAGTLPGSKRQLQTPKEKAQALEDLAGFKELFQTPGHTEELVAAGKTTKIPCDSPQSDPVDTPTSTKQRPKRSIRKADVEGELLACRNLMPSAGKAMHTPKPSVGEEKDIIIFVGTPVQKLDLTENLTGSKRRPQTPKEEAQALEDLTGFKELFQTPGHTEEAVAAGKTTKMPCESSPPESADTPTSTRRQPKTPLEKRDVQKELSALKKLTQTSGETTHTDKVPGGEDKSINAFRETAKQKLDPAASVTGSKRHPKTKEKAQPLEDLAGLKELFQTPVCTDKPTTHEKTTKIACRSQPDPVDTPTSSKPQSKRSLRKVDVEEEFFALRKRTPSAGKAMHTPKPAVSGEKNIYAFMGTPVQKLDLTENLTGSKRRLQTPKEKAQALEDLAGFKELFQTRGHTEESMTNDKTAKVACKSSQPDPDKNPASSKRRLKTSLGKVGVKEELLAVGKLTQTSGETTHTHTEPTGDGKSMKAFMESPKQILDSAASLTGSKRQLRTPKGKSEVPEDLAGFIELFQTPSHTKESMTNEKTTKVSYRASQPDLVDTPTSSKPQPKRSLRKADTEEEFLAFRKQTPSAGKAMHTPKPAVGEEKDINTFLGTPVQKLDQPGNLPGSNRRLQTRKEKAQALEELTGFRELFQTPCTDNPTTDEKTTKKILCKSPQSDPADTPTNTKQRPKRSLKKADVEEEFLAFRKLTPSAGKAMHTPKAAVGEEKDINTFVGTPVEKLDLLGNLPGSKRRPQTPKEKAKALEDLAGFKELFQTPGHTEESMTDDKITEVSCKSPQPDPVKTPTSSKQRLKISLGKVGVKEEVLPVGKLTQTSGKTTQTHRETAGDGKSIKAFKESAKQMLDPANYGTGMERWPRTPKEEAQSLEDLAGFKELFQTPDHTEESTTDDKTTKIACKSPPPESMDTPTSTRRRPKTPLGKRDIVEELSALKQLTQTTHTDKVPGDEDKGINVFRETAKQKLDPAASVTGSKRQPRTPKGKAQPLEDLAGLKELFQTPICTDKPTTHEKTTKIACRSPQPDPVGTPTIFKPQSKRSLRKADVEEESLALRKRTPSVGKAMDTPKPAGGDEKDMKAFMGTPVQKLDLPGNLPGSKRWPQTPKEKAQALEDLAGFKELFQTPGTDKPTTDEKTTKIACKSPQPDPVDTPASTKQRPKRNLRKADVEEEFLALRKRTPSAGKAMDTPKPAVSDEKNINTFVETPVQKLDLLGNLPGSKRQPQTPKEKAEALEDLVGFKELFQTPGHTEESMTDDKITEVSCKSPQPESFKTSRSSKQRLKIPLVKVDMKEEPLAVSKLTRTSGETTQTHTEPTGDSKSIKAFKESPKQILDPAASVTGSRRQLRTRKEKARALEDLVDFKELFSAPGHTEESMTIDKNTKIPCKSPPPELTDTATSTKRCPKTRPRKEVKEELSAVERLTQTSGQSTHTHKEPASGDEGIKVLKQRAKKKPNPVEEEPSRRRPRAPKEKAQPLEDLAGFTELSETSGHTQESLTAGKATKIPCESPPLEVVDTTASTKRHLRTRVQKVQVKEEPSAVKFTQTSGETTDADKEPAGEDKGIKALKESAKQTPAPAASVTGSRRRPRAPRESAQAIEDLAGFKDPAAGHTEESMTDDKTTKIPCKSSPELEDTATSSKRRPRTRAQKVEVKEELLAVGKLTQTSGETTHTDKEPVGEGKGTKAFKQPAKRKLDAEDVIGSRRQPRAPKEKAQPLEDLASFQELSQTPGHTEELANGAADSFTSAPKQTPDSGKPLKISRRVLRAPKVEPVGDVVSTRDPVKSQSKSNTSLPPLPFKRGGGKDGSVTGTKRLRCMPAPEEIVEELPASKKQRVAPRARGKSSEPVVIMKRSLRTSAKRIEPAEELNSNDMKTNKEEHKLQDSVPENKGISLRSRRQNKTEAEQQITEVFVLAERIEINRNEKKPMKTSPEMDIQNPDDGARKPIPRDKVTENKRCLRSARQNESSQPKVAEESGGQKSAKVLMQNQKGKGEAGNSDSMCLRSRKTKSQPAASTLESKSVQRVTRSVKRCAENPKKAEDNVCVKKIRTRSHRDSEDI
UniProt P49915: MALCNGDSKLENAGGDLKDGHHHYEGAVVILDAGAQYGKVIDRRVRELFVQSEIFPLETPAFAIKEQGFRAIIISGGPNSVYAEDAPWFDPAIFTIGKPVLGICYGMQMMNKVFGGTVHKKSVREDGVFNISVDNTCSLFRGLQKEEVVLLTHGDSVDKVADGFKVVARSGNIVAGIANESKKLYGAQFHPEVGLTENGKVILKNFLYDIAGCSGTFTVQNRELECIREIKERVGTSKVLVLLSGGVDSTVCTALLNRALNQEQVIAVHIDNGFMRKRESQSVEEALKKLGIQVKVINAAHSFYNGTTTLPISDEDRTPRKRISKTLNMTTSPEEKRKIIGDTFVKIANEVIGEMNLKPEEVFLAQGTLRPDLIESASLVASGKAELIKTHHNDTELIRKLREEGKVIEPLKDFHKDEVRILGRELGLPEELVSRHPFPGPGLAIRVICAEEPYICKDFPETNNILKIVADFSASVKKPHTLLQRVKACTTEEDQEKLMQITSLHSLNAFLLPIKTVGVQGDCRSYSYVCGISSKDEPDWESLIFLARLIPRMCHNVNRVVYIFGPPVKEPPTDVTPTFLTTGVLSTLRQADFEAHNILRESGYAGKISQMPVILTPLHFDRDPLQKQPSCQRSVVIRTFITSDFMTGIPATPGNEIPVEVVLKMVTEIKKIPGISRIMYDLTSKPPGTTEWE
UniProt P50991: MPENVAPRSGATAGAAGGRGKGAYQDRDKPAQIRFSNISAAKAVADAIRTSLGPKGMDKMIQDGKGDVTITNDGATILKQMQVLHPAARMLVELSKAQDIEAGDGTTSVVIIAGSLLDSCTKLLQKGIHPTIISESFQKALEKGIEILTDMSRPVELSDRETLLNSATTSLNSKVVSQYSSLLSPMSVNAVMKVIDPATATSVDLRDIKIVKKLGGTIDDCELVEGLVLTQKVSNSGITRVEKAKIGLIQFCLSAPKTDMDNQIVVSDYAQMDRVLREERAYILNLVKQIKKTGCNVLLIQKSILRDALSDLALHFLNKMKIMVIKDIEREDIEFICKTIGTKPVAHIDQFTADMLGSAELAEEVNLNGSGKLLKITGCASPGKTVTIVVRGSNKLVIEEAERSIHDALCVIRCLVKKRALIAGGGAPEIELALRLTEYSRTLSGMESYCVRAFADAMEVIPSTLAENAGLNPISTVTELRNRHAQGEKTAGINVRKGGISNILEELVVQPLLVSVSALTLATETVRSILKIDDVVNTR
UniProt P46734: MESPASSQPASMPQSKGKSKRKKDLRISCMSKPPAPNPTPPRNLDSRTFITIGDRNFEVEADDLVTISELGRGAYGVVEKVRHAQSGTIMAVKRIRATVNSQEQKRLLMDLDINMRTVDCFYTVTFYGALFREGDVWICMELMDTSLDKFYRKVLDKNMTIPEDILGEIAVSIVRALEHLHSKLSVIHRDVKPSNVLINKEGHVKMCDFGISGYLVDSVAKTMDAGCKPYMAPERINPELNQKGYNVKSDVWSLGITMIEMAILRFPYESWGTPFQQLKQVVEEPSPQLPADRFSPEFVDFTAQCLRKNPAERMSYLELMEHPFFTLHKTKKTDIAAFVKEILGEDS
UniProt P49757: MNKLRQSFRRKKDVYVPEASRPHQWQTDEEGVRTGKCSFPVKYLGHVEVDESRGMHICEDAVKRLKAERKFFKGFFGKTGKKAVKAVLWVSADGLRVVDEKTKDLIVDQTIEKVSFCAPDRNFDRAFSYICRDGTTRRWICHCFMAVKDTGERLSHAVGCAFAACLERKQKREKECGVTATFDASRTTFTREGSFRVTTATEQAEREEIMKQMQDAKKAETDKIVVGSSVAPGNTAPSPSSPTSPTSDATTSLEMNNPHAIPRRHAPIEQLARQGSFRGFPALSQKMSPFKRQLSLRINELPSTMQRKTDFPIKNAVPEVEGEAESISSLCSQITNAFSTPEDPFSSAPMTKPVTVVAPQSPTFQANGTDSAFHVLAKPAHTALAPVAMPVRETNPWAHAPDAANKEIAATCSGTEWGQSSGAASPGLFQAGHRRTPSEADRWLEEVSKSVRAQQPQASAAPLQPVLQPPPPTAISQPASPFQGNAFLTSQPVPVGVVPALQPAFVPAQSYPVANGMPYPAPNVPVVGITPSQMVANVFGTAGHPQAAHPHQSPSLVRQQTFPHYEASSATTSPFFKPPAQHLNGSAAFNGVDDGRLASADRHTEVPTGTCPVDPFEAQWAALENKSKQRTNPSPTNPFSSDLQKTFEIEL
UniProt P51530: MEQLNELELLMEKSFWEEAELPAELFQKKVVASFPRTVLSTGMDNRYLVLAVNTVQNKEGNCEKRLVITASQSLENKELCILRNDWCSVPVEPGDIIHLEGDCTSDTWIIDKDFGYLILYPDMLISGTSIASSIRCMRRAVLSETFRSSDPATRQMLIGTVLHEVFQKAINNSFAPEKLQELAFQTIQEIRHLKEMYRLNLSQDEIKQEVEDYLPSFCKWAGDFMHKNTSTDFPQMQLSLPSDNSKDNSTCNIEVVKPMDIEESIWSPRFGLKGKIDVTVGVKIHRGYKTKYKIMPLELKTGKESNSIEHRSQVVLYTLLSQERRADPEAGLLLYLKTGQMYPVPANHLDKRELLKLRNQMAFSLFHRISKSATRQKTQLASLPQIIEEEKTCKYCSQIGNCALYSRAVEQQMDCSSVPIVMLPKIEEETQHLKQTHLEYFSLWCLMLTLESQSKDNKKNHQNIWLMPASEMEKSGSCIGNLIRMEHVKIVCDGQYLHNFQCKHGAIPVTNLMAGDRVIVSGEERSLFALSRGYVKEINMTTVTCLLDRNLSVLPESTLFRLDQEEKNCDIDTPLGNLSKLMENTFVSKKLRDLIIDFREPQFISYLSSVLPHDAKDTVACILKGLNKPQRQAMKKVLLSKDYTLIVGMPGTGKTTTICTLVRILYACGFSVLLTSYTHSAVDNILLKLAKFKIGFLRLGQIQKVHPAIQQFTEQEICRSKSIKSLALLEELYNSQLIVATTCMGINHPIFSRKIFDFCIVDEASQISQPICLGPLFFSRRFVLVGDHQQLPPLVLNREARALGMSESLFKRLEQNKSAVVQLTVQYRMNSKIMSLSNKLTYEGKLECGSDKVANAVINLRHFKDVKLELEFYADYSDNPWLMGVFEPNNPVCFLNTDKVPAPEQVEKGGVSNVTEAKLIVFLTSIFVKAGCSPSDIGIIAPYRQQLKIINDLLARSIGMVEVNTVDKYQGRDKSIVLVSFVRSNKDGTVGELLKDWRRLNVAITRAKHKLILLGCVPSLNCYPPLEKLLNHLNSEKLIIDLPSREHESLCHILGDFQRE

These targets were tested with COC(=O)C#Cc1ccccc1 [methyl 3-phenylpropiolate] (assay: log2 ratio of iodoacetamide-alkyne labeling of the cysteine site, DMSO over compound (competition); higher = stronger covalent engagement of the cysteine by the compound, active = 1 or more). Conditions: 500 µM; treatment time 1 h; system: HEK293T cell lysate.
Method in brief: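 Three replicates, each with duplicate channels, were prepared from HEK293T lysate (2 mg/mL) treated with vehicle or electrophile at 500 µM for 1 h at ambient temperature. Iodoacetamide alkyne was then applied for 1 h, and samples were clicked to sCIP-TMT reagents, pooled, trypsin-digested overnight at 37 °C, enriched on streptavidin, acid-eluted and analysed on Orbitrap Eclipse LC-MS/MS with FAIMS, with FragPipe quantification. The log2 competition ratio per cysteine is the mean control-channel divided by the mean compound-channel reporter intensity. Cysteines quantified in only one replicate were left out.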

| Target | log2 ratio of iodoacetamide-alkyne labeling |
| --- | --- |
| MKI67 C643 (UniProt P46013) | inactive: 0.312 |
| NT5C2 C181 (UniProt P49902) | inactive: 0.0722 |
| GALK1 C182 (UniProt P51570) | inactive: 0.0992 |
| MAP1B C190 (UniProt P46821) | inactive: 0.39 |
| UniProt P48730_C255 | inactive: 0.403 |
| RBM25 C83 (UniProt P49756) | inactive: 0.149 |
| UTRN C862 (UniProt P46939) | inactive: 0.314 |
| DNM2 C607 (UniProt P50570) | inactive: 0.37 |
| RPL34 C46 (UniProt P49207) | inactive: 0.949 |
| GMPS C137 (UniProt P49915) | inactive: 0.217 |
| CAPZA2 C111 (UniProt P47755) | inactive: 0.0355 |
| CCT4 C120 (UniProt P50991) | inactive: 0.0913 |
| MKI67 C715 (UniProt P46013) | inactive: 0.667 |
| IQGAP1 C1534 (UniProt P46940) | inactive: -0.0904 |
| UniProt P46734_C305 | inactive: -0.185 |
| RPL5 C100 (UniProt P46777) | inactive: 0.0186 |
| UniProt P49591_C438 | inactive: 0.0645 |
| UniProt P46379_C856 | inactive: 0.0321 |
| GMPS C456 (UniProt P49915) | inactive: -0.041 |

Reprinted at random: 2 entries already listed, in no set order.

| Target | log2 ratio of iodoacetamide-alkyne labeling |
| --- | --- |
| UTRN C862 (UniProt P46939) | inactive: 0.314 |
| GMPS C137 (UniProt P49915) | inactive: 0.217 |

(list continues)

| Target | log2 ratio of iodoacetamide-alkyne labeling |
| --- | --- |
| CCT8 C430 (UniProt P50990) | inactive: 0.518 |
| PREP C255 (UniProt P48147) | inactive: 0.0469 |
| UniProt P49840_C398 | inactive: 0.241 |
| PDLIM4 C44 (UniProt P50479) | inactive: -0.0459 |
| RPL14 C42 (UniProt P50914) | active: 1.82 |
| ALDH7A1 C522 (UniProt P49419) | inactive: 0.395 |
| GALK1 C322 (UniProt P51570) | inactive: -0.00419 |
| CCT4 C379 (UniProt P50991) | inactive: 0.117 |
| NUMB C611 (UniProt P49757) | inactive: 0.465 |
| SMARCA4 C936 (UniProt P51532) | inactive: 0.5 |
| RANBP1 C99 (UniProt P43487) | inactive: 0.0956 |
| CCT3 C40 (UniProt P49368) | inactive: 0.13 |
| YLPM1 C1967 (UniProt P49750) | inactive: 0.578 |
| CDK8 C25 (UniProt P49336) | inactive: 0.154 |
| CBX5 C133 (UniProt P45973) | inactive: 0.17 |
| DNA2 C569 (UniProt P51530) | inactive: 0.558 |
| PRIM2 C25 (UniProt P49643) | inactive: 0.0724 |
| MAP1B C73 (UniProt P46821) | inactive: 0.173 |
